Source: publication PMC12135451
No constants are given. Whether binding was seen depends on the method and setting. Binding seen in cells or lysates may run through a third protein. Some entries that bind do so weakly or less than the wild type. Sequences can lack the tags named with a protein.

Chains of the proteins cited; added tags and fusions are not shown.
UniProt Q96EP0: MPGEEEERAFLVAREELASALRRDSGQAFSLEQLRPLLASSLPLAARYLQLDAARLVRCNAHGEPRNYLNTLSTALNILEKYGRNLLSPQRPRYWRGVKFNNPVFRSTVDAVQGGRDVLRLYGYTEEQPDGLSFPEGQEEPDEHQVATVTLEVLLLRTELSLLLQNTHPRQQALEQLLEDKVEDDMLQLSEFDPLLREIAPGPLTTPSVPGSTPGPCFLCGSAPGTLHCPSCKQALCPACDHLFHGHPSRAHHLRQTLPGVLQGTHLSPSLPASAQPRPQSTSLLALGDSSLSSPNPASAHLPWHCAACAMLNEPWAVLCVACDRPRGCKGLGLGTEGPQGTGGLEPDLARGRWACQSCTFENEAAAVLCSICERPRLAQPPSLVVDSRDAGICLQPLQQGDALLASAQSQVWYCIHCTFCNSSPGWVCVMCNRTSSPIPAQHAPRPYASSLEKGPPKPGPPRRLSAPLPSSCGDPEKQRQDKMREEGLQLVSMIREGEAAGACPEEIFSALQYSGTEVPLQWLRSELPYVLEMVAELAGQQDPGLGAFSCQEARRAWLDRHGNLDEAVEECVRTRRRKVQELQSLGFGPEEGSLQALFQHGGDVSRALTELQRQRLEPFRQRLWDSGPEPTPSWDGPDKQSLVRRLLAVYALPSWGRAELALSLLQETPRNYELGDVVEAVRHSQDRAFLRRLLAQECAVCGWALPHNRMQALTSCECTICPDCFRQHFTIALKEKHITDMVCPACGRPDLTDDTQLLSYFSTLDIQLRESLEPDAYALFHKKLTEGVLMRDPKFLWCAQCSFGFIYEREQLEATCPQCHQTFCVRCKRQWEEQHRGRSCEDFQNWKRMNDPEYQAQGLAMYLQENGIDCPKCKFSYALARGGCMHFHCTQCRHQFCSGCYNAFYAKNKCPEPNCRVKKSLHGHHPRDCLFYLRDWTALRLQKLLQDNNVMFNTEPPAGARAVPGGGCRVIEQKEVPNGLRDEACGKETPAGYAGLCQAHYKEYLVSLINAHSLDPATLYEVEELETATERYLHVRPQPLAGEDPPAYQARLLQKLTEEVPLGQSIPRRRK
UniProt Q13257: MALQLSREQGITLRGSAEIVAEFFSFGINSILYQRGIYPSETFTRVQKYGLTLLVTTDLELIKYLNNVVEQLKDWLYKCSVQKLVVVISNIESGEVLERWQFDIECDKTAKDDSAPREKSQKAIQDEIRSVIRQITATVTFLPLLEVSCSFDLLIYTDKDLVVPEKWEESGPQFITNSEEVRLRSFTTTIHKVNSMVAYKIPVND
UniProt P53350: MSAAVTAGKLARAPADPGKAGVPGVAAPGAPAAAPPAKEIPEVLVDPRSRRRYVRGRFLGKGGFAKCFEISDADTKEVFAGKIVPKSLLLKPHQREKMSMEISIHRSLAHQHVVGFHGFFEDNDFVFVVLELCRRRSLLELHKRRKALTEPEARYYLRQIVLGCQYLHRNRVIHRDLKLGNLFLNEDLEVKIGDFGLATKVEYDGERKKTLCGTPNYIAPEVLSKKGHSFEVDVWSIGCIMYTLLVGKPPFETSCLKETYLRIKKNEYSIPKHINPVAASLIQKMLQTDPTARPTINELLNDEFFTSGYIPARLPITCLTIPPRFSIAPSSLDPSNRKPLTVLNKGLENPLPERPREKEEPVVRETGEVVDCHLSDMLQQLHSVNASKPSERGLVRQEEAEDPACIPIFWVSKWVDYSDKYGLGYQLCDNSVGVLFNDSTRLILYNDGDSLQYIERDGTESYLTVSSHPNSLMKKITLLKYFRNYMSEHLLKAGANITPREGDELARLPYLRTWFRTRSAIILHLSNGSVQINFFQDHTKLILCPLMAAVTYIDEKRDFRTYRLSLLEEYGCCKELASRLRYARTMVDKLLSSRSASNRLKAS

B1: HA-p31^comet (protein, UniProt Q15013 1-274)
chain: MAAPEAEVLSSAAVPDLEWYEKSEETHASQIELLETSSTQEPLNASEAFCPRDCMVPVVFPGPVSQEGCCQFTCELLKHIMYQRQQLPLPYEQLKHFYRKPSPQAEEMLKKKPRATTEVSSRKCQQALAELESVLSHLEDFFARTLVPRVLILLGGNALSPKEFYELDLSLLAPYSVDQSLSTAACLRRLFRAIFMADAFSELQAPPLMGTVVMAQGHRNCGEDWFRPKLNYRVPSRGHKLTVTLSCGRPSIRTTAWEDYIWFQAPVTFKGFRE
B2: Myc-p31^comet (protein, UniProt Q15013 1-274)
chain: B1 chain
B3: HA-TRIP13 (enzyme, UniProt Q3UA06 1-432)
chain: MDEAVGDLKQALPCVAESPAVHVEVLQRSGSTAKKEDIKSSVYRLLNRHNIVFGDYVWTEFDDPFLSRNVQSVSIVDTELKAKDPQPIDLSACTIALHIFQLNEEGPSSENLDEETENIIAASHWVLPAAEFHGLWDSLVYDVEVKSHLLDYVMTTVLFSDKNVDSNLITWNRVVLLHGPPGTGKTSLCKALAQKLTIRLSSRYRYGQLIEINSHSLFSKWFSESGKLVTKMFQKIQDLIDDKEALVFVLIDEVESLTAARNACRAGAEPSDAIRVVNAVLTQIDQIKRHSNVVILTTSNITEKIDVAFVDRADIKQYIGPPSAAAIFKIYLSCLEELMKCQIIYPRQQLLTLRELEMIGFIENNVSKLSLLLSEISRKSEGLSGRVLRKLPFLAHALYIQAPSVTIEGFLQALSLAVDKQFEEKKKLSAYV

Key:
[1] = molecular target: Flag-HOIP (human) (UniProt Q96EP0); test: co-IP; asynchronous 293T cells transfected with Flag- and HA-tagged constructs; anti-Flag and/or anti-HA IP; lysis in EBC buffer (50 mM Tris pH 7.5, 120 mM NaCl, 0.5% NP-40), four washes with NETN buffer; immunoblot
[2] = molecular target: T1, Flag-SHARPIN (UniProt Q9H0F6); test: as above
T1 sequence: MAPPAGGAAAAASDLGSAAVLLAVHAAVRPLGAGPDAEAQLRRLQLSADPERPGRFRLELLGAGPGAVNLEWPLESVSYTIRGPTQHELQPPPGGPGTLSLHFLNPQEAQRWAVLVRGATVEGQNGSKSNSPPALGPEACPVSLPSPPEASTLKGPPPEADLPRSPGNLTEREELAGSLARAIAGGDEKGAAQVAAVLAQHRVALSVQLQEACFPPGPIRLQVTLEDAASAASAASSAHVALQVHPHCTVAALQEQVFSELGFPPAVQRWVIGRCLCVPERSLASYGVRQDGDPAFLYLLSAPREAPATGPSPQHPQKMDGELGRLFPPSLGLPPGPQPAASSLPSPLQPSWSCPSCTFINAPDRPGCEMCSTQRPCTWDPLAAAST

[3] = molecular target: HA-MAD2 (human) (UniProt Q13257); test: co-IP; 293T cells transfected with Myc-p31^comet and HA-PLK1 or HA-MAD2, with or without His-UB and Flag-HOIP; anti-HA IP; immunoblot
[4] = molecular target: HA-PLK1 (UniProt P53350); test: as above

Binder | binding [1] | binding [2] | binding [3] | binding [4]
B1 | binds | no binding |  | 
B2 |  |  | binds | binds
B3 | no binding |  |  | 
